# Measured values reported in publication PMC4749218.
# Molecular target: T1, E3 ubiquitin-protein ligase IE2 (Autographa californica nuclear polyhedrosis virus (AcMNPV)) (UniProt P24647)
# T1 sequence: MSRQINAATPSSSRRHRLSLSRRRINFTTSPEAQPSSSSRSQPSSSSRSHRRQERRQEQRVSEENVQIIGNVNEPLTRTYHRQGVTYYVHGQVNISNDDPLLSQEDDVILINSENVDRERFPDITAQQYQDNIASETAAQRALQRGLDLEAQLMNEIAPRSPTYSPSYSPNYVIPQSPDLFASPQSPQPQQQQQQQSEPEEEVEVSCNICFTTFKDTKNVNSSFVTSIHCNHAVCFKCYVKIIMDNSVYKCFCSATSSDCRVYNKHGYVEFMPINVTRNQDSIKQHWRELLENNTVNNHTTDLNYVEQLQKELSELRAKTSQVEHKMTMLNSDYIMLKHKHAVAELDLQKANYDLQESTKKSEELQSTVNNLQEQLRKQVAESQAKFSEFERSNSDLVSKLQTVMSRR
# Assay: co-IP; nuclear extracts of vAcIE2-transduced Vero E6 cells incubated with anti-His antibody overnight at 4°C, protein G magnetic beads, washed in DPBS with 0.1% Tween 20, eluted with Laemmli buffer; Western blot; vAcE-transduced extract as control
row,Substance,binding
1,HSP70,binds
2,HSP90,no binding

# Results are given in words; binding and its absence hold for the method and conditions named. Binding seen in cells or lysates may run through a third protein. A result given as binding can be weak or reduced; the word gives no strength.
